Results are given in words; binding and its absence hold for the method and conditions named. Binding seen in cells or lysates may run through a third protein. Some entries that bind do so weakly or less than the wild type.

Chains of the proteins cited; added tags and fusions are not shown.
UniProt Q9NTJ3: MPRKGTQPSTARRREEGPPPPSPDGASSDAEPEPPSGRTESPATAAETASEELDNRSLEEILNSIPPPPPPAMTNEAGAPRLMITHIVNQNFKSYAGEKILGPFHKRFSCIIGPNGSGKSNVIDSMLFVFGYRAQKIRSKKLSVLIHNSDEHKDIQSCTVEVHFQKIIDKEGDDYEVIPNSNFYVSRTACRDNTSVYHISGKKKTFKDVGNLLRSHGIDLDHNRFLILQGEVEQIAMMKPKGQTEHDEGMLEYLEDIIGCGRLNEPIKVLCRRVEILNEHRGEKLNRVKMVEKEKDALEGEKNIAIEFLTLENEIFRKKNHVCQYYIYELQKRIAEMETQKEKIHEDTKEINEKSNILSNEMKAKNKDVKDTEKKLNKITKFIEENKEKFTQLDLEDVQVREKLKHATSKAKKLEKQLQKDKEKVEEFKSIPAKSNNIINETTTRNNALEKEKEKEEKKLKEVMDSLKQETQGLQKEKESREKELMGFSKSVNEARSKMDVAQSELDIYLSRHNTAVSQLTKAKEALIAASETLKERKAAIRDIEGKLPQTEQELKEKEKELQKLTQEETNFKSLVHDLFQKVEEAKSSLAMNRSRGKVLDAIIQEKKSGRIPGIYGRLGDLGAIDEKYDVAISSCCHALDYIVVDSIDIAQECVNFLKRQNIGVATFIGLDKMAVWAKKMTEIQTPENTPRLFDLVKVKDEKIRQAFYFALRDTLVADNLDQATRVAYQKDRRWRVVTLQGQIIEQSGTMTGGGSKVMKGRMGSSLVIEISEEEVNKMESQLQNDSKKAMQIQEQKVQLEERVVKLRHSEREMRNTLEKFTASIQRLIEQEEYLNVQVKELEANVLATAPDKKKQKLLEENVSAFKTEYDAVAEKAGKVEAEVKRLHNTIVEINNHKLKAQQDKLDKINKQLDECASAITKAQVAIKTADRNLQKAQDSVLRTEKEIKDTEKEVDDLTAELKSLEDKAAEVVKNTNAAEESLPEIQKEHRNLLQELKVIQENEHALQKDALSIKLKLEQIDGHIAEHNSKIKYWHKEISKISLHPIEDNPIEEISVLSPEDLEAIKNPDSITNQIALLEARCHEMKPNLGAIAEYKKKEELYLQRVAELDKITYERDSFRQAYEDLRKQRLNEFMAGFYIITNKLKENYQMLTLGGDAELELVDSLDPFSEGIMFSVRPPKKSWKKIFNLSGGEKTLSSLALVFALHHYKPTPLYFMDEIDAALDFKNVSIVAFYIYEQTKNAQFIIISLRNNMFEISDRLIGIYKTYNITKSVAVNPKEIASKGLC

The target of the assay is Structural maintenance of chromosome 4 (human (endogenous in A549)) (UniProt Q9NTJ3). In words: co-IP; nuclear extracts of A549 cells (NE-PER), pre-cleared; immunoprecipitated with anti-SMC4 or (reciprocal) anti-DDX46 antibody and Protein A/G PLUS Agarose overnight at 4 °C; washed with 1xTBS; Western blot; normal rabbit IgG as negative control.

B1: DEAD-box helicase 46 (protein, UniProt Q7L014 1-1031)
chain: MGRESRHYRKRSASRGRSGSRSRSRSPSDKRSKRGDDRRSRSRDRDRRRERSRSRDKRRSRSRDRKRLRRSRSRERDRSRERRRSRSRDRRRSRSRSRGRRSRSSSPGNKSKKTENRSRSKEKTDGGESSKEKKKDKDDKEDEKEKDAGNFDQNKLEEEMRKRKERVEKWREEQRKKAMENIGELKKEIEEMKQGKKWSLEDDDDDEDDPAEAEKEGNEMEGEELDPLDAYMEEVKEEVKKFNMRSVKGGGGNEKKSGPTVTKVVTVVTTKKAVVDSDKKKGELMENDQDAMEYSSEEEEVDLQTALTGYQTKQRKLLEPVDHGKIEYEPFRKNFYVEVPELAKMSQEEVNVFRLEMEGITVKGKGCPKPIKSWVQCGISMKILNSLKKHGYEKPTPIQTQAIPAIMSGRDLIGIAKTGSGKTIAFLLPMFRHIMDQRSLEEGEGPIAVIMTPTRELALQITKECKKFSKTLGLRVVCVYGGTGISEQIAELKRGAEIIVCTPGRMIDMLAANSGRVTNLRRVTYVVLDEADRMFDMGFEPQVMRIVDNVRPDRQTVMFSATFPRAMEALARRILSKPIEVQVGGRSVVCSDVEQQVIVIEEEKKFLKLLELLGHYQESGSVIIFVDKQEHADGLLKDLMRASYPCMSLHGGIDQYDRDSIINDFKNGTCKLLVATSVAARGLDVKHLILVVNYSCPNHYEDYVHRAGRTGRAGNKGYAYTFITEDQARYAGDIIKALELSGTAVPPDLEKLWSDFKDQQKAEGKIIKKSSGFSGKGFKFDETEQALANERKKLQKAALGLQDSDDEDAAVDIDEQIESMFNSKKRVKDMAAPGTSSVPAPTAGNAEKLEIAKRLALRINAQKNLGIESQDVMQQATNAILRGGTILAPTVSAKTIAEQLAEKINAKLNYVPLEKQEEERQDGGQNESFKRYEEELEINDFPQTARWKVTSKEALQRISEYSEAAITIRGTYFPPGKEPKEGERKIYLAIESANELAVQKAKAEITRLIKEELIRLQNSYQPTNKGRYKVL
For B1, the binding result was “binds”.

For the origin of these results see PMC5043270.
